Laboratory results from US11980668 (dated 2024).

Assay: general procedure: solution-phase peptide synthesis; HATU/DIPEA; PyAOP/DIPEA; HOAt or HOBt with PNP carbonate

Substance | step yield (late stage modification step) [%] | conjugation yield (conjugation step) [%]
4-((5S,8S,11S,12R)-11-((S)-sec-butyl)-12-(2-((S)-2-((1R,2R)-3-(((1S,2R)-1-hydroxy-1-phenylpropan-2-yl)amino)-1-methoxy-2-methyl-3-oxopropyl)pyrrolidin-1-yl)-2-oxoethyl)-5,8-diisopropyl-4,10-dimethyl-3,6,9-trioxo-2,13-dioxa-4,7,10-triazatetradecyl)-2-(3-(3-(2-(2-((1-(3-(2-((1,2-dimethylhydrazinyl)methyl)-1H-pyrrolo[2,3-b]pyridin-1-yl)propanoyl)piperidin-4-yl)amino)ethoxy)ethoxy)propanamido)propanamido)phenyl hydrogen sulfate | 54 | 
4-((5S,8S,11S,12R)-11-((S)-sec-butyl)-12-(2-((S)-2-((1R,2R)-3-(((1S,2R)-1-hydroxy-1-phenylpropan-2-yl)amino)-1-methoxy-2-methyl-3-oxopropyl)pyrrolidin-1-yl)-2-oxoethyl)-5,8-diisopropyl-4,10-dimethyl-3,6,9-trioxo-2,13-dioxa-4,7,10-triazatetradecyl)-3-(3-(3-(2-(2-((1-(3-(2-((1,2-dimethylhydrazinyl)methyl)-1H-pyrrolo[2,3-b]pyridin-1-yl)propanoyl)piperidin-4-yl)amino)ethoxy)ethoxy)propanamido)propanamido)phenyl hydrogen sulfate |  | 68
